The values below come from PubChem BioAssay AID1487 (National Center for Advancing Translational Sciences (NCATS), 2009).

The nature of the assay: qHTS Assay for Modulators of Lamin A Splicing. As to conditions: HeLa LMNA splicing GFP/RFP minigene ratio, 48 h. In outline:
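S3 HeLa stable clones carrying a lamin A-EGFP splicing minigene plus DsRed2 were seeded at 600 cells/well in Opti-MEM with 2% FBS, pin-dosed and incubated 48 h at 37°C. Acumen cytometry (488 nm) gave the GFP/RFP total-intensity ratio.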
For orientation: In qHTS, concentration-response curves come from the screen itself.

Where [1] appears, read: measured here: RFP viability control channel.
The mark [2] stands for this setting: measured here: GFP splicing reporter channel.

This is one part of the list. The main result of the screen is listed elsewhere. These columns were measured beside it and carry no call. Most of these compounds were active or inconclusive in the main read-out, so they are no random draw. Words in brackets tell the shape of the fitted curve; partial curves, single points and poor fits give uncertain potencies.

With `COc1ccc(Cn2nnnc2C(CC(C)C)N2CCN(c3ccccc3)CC2)cc1` (stereo unspecified), the concentration at half-maximal activity (AC50) under setting [1] was 15.8 µM [rising, single point].

For the compound `O=C(c1nnsc1S(=O)(=O)c1ccc(Cl)cc1)N1CCOCC1`, the half-maximal activity concentration (AC50) under setting [1] was 0.0224 µM [rising, full curve, poor fit].

On to `O=C(Nc1ccc(O)cc1)c1ccccc1O`, for which the AC50 under setting [1] was 14.1 µM [rising, partial curve].

Turning to `CCOc1ccc(C(CCc2ccccc2)NC(=O)c2ccc(OC)c(OC)c2)cc1OCC` (stereo unspecified), the half-maximal activity concentration (AC50) runs as follows: under setting [2], 22.4 µM [rising, partial curve, poor fit]; under setting [1], 31.6 µM [rising, single point].

Consider `COc1ccccc1/C=C/C(=O)NC(=S)NCC1CCCO1` (stereo unspecified), for which, under setting [1], the AC50 was 12.6 µM [rising, partial curve, poor fit].

As for `Cn1c(C(=O)NCCCN2CCN(c3ccccc3F)CC2)cc2c(=O)n(C)c3ccccc3c21`, the AC50 under setting [1] is 35.5 µM [rising, single point].

As to `CCOc1ccc2nc(N3CCC(C(=O)N4CCN(c5ccccn5)CC4)CC3)sc2c1`, the AC50 is 12.6 µM [rising, partial curve] under setting [2] and 11.2 µM [rising, partial curve] under setting [1].

As to `CN(C)c1ccc(/C=C/C(=O)c2cccc(Br)c2)cc1`, the AC50 runs as follows: under setting [2], 28.2 µM [falling, single point]; under setting [1], 35.5 µM [falling, single point].

Take `Cc1[nH]c2ccc(F)cc2c(=O)c1SC(F)(F)C(F)F`: under setting [1], the half-maximal activity concentration (AC50) was 31.6 µM [rising, single point].

Take `O=c1cc(Nc2ccc3c(c2)OCCO3)[nH]c(=O)n1C1CCCCC1`: the AC50 under setting [1] is 11.2 µM [rising, partial curve].

As for `O=C(NCc1ccccn1)c1ccccc1-c1ccccc1`, the AC50 under setting [2] is 17.8 µM [rising, partial curve] and the concentration at half-maximal activity (AC50) under setting [1] was 0.00562 µM [rising, full curve, poor fit].

On to `COc1coc(C(O)C[N+](=O)[O-])cc1=O` (stereo unspecified), for which the AC50 under setting [2] was 1.26 µM [falling, partial curve, poor fit].

In the case of `CCOC(=O)c1c(NC(=O)CCN2C(=O)c3cccc([N+](=O)[O-])c3C2=O)sc(C(=O)OC(C)C)c1C`, the half-maximal activity concentration (AC50) under setting [2] is 2.51 µM [falling, full curve, poor fit].

`CCOC(=O)C1(Cc2cccc(F)c2)CCN(Cc2nc(CC)[nH]c2C)CC1`: the AC50 is, setting by setting: under setting [2], 6.31 µM [falling, partial curve, poor fit]; under setting [1], 0.794 µM [falling, full curve, poor fit].

For the compound `CC(C)C(=O)N1CCN(c2ccc([N+](=O)[O-])cc2Cl)CC1`, the half-maximal activity concentration (AC50) is, setting by setting: under setting [2], 14.1 µM [rising, single point]; under setting [1], 15.8 µM [rising, single point].

What is called AC50 is the concentration giving half of the maximal activity seen.
